Among the data in PMC11063907 are binding values, retold here.

No constants are given. Whether binding was seen depends on the method and setting. In cells and extracts the contact can be indirect. Some entries that bind do so weakly or less than the wild type. Sequences can lack the tags named with a protein.

Test [1] has as its target T1, malin-myc (mouse malin with a C-terminal 2x c-myc tag, expressed from the endogenous gene) (mouse) (UniProt Q8BR37).
T1 sequence: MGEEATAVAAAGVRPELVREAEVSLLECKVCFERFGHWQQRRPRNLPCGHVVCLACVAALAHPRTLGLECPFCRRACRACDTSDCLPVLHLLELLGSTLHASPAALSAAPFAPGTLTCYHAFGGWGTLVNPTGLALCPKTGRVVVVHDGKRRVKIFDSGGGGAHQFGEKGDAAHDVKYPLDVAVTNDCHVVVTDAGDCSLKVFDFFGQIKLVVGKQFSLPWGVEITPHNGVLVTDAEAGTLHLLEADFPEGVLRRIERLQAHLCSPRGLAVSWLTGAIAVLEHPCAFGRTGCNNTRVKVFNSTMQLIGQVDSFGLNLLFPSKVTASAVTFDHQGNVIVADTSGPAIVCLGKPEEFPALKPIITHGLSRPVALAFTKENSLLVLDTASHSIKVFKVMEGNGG
Nature of the test: co-IP; anti-c-myc antibody with Protein-G Agarose, or anti-c-myc antibody linked to agarose, on the low-speed supernatant of skeletal muscle of 4-month-old malin-myc mice (WT mice as control), 18-20 h at 4 °C; blotted for c-myc, GYS1 and laforin; also with 0.1 mg/ml α-amylase during the IP, and with 0.1 mg/ml amyloglucosidase on the beads for 2.5 h at 37 °C.

Test [2] deals with T1, malin-myc (mouse malin with a C-terminal 2x c-myc tag, expressed from the endogenous gene) (mouse). Nature of the test: co-IP; anti-c-myc antibody with Protein-G Agarose on the low-speed supernatant of brain of 4-month-old malin-myc mice (WT mice as control); blotted for c-myc, GYS1 and laforin.

B1: laforin (enzyme, UniProt Q9WUA5 1-330)
chain: MLFRFGVVVPPAVAGARQELLLAGSRPELGRWEPHGAVRLRPAGTAAGAAALALQEPGLWLAEVELEAYEEAGGAEPGRVDTFWYKFLQREPGGELHWEGNGPHHDRCCTYNEDNLVDGVYCLPVGHWIEATGHTNEMKHTTDFYFNIAGHQAMHYSRILPNIWLGSCPRQLEHVTIKLKHELGVTAVMNFQTEWDIIQNSSGCNRYPEPMTPDTMMKLYKEEGLSYIWMPTPDMSTEGRVQMLPQAVCLLHALLENGHTVYVHCNAGVGRSTAAVCGWLHYVIGWNLRKVQYFIMAKRPAVYIDEDALAQAQQDFSQKFGKVHSSICAL
With B1, the binding result in test [1] and in test [2] was “binds” in each case.
